No constants are given. Whether binding was seen depends on the method and setting. Binding seen in cells or lysates may run through a third protein. Binding can be weak; no strength is given.
Biological target: T1, VE-cadherin (human (endogenous in HUVEC)) (UniProt P33151)
T1 sequence: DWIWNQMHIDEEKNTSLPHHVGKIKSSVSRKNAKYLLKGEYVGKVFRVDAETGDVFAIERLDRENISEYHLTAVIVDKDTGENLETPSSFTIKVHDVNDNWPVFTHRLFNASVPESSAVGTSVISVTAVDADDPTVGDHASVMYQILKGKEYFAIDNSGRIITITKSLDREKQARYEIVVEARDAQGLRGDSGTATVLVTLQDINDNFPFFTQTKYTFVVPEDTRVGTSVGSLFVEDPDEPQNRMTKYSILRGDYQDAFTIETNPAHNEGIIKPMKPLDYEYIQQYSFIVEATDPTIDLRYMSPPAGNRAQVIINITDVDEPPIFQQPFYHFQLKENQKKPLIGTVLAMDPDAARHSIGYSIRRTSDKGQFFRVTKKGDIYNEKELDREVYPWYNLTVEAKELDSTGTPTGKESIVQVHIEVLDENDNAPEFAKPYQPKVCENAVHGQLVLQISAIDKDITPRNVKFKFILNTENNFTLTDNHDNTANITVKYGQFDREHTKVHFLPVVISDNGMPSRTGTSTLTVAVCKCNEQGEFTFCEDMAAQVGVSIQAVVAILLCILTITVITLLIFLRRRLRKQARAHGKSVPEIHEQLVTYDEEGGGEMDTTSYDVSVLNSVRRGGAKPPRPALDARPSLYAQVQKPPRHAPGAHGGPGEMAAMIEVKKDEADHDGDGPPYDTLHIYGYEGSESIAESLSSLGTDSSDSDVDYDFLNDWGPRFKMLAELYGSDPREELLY
Assay: co-IP; VE-cadherin precipitated from HUVEC cell lysates (shScramble, shPRKD1 stable knockdown lines, or cells treated with the PRKD inhibitor CRT0066101, 5 µM); coprecipitated partners detected by Western blot

- binding: binds
Substance: Vinculin (from UniProt P18206-2)

Reference: publication PMC10017463
